Experiment [1] addresses T1, Flag-VDR-LBD (C-terminal ligand-binding domain of VDR) (UniProt P11473).
T1 sequence: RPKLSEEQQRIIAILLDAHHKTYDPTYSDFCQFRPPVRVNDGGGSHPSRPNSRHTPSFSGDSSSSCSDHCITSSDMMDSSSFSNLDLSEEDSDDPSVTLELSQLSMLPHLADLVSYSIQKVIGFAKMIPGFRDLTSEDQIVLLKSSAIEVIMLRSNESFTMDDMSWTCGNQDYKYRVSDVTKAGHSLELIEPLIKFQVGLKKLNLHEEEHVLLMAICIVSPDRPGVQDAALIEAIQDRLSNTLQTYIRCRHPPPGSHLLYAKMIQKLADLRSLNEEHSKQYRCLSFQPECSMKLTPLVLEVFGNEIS
Description: co-IP; BV2 cells transfected with Flag-tagged VDR and Myc-tagged DUB3 constructs; lysates in IP buffer incubated with the indicated antibody and protein G-agarose beads at 4 °C overnight, three washes, western blotting.

The target in experiment [2] is T2, Flag-VDR (vitamin D receptor, full length) (UniProt P11473).
T2 sequence: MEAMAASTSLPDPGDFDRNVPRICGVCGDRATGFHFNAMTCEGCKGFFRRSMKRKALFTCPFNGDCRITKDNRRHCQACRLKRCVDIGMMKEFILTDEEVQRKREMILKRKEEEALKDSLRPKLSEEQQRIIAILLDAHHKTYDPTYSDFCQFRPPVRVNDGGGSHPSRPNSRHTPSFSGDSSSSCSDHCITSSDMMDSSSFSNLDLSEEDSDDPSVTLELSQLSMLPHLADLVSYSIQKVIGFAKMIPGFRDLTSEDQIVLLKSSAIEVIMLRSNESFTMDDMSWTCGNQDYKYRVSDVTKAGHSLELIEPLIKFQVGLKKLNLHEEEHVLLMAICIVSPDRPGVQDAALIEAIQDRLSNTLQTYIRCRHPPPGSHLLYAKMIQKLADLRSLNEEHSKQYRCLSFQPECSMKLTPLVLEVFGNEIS
The description is as above.

These are yes or no findings as the source states them, for the method shown. Binding seen in cells or lysates may run through a third protein. Some results given as binding are weak or reduced against the parent protein; the word gives no strength. Where a sequence is shown, tags or fusion partners need not be part of it.

B1: Myc-DUB3-N (N-terminal catalytic domain of DUB3) (domain or fragment, UniProt Q6R6M4 1-398)
chain: MEDDSLYLGGEWQFNHFSKLTSSRPDAAFAEIQRTSLPEKSPLSSEARVDLCDDLAPVARQLAPRKKLPLSSRRPAAVGAGLQNMGNTCYENASLQCLTYTPPLANYMLSREHSQTCQRPKCCMLCTMQAHITWALHSPGHVIQPSQALAAGFHRGKQEDAHEFLMFTVDAMKKACLPGHKQVDHHSKDTTLIHQIFGGCWRSQIKCLHCHGISDTFDPYLDIALDIQAAQSVKQALEQLVKPEELNGENAYHCGLCLQRAPASKTLTLHTSAKVLILVLKRFSDVTGNKLAKNVQYPECLDMQPYMSQQNTGPLVYVLYAVLVHAGWSCHDGHYFSYVKAQEGQWYKMDDAKVTACSITSVLSQQAYVLFYIQKSEWERHSESVSRGREPRALGAED
Consider B1, for which the binding result in experiment [1] and in experiment [2] was “binds” each time.

B2: Myc-DUB3 (deubiquitinase DUB3, full length) (enzyme, UniProt Q6R6M4 1-530)
chain: MEDDSLYLGGEWQFNHFSKLTSSRPDAAFAEIQRTSLPEKSPLSSEARVDLCDDLAPVARQLAPRKKLPLSSRRPAAVGAGLQNMGNTCYENASLQCLTYTPPLANYMLSREHSQTCQRPKCCMLCTMQAHITWALHSPGHVIQPSQALAAGFHRGKQEDAHEFLMFTVDAMKKACLPGHKQVDHHSKDTTLIHQIFGGCWRSQIKCLHCHGISDTFDPYLDIALDIQAAQSVKQALEQLVKPEELNGENAYHCGLCLQRAPASKTLTLHTSAKVLILVLKRFSDVTGNKLAKNVQYPECLDMQPYMSQQNTGPLVYVLYAVLVHAGWSCHDGHYFSYVKAQEGQWYKMDDAKVTACSITSVLSQQAYVLFYIQKSEWERHSESVSRGREPRALGAEDTDRRATQGELKRDHPCLQAPELDERLVERATQESTLDHWKFPQEQNKTKPEFNVRKVEGTLPPNVLVIHQSKYKCGMKNHHPEQQSSLLNLSSTTRTDQESVNTGTLASLQGRTRRSKGKNKHSKRALLVCQ
In the case of B2, the binding entry in experiment [1] and in experiment [2] was “binds” each time.

The record behind these values is paper PMC10957901.
